This is one part of the list.
Legend:
Test in all cases: log2 fold change, soluble protein after heating vs DMSO (PISA); higher = thermal stabilisation; K562 lysate, 10 uM; active = over 0.2 and 3.5 SD of the protein, either way, in both replicates (recomputed)
erlotinib = compound: C#Cc1cccc(Nc2ncnc3cc(OCCOC)c(OCCOC)cc23)c1 [erlotinib]
Method in brief: (§1)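 A 30 min treatment with 10 μM compound was applied to crude K562 extract at 1 mg/mL protein in PBS pH 7.4 with 1 mM MgCl2. Heating for 3 min spanned 48°C-58°C, after which aliquots were pooled, adjusted to 0.5% NP-40 at 4°C and spun at 21,000xg for 90 min. TMTpro 16plex LC-MS/MS of the supernatant, with channel sums equalised, gave values recorded as log-two fold change in thermal stability against solvent controls, from duplicates.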

Amino acid sequences for entries named in this document (tags omitted). A change or cut given only in a name is not applied to a line headed by its entry.
UniProt Q8IUZ5: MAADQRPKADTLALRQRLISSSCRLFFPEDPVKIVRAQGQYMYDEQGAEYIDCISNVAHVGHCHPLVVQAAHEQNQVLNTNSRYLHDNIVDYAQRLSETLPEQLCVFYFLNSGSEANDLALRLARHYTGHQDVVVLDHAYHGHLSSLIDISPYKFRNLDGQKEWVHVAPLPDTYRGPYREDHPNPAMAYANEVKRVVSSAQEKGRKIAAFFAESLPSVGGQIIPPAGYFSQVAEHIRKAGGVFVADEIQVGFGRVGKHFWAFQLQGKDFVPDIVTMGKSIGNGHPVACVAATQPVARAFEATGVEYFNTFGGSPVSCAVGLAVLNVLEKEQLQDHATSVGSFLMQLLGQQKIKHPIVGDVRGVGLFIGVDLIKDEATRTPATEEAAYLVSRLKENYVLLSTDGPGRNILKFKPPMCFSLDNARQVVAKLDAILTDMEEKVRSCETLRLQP
UniProt O95394: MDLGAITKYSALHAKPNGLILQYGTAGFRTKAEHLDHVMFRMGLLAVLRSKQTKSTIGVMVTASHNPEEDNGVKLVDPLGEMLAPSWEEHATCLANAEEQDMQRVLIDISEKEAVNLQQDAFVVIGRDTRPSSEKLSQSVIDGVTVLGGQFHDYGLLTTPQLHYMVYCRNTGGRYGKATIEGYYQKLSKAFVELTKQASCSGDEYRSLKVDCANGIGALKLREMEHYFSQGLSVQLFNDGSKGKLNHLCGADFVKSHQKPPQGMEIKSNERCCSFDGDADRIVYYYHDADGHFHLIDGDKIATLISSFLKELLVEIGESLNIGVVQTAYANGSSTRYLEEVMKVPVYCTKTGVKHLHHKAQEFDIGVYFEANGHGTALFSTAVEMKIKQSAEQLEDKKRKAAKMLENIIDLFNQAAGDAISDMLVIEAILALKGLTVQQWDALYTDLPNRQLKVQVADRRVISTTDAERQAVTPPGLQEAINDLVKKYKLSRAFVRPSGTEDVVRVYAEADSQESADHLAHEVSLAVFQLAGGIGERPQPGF
UniProt Q9BTU6: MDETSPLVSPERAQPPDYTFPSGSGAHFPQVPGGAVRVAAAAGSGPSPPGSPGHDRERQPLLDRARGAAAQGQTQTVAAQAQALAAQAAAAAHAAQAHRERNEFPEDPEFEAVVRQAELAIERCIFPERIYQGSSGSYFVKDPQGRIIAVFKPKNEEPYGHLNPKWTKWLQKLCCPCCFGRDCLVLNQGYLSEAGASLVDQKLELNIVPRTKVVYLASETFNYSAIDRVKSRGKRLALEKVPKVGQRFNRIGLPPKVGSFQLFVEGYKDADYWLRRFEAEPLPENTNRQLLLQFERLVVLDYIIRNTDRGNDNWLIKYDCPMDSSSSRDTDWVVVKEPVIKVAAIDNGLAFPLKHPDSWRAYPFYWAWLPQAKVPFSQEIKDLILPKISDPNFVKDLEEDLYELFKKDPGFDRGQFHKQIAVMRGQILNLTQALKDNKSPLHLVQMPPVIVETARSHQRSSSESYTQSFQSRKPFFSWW
UniProt P14618, whole entry, looked up: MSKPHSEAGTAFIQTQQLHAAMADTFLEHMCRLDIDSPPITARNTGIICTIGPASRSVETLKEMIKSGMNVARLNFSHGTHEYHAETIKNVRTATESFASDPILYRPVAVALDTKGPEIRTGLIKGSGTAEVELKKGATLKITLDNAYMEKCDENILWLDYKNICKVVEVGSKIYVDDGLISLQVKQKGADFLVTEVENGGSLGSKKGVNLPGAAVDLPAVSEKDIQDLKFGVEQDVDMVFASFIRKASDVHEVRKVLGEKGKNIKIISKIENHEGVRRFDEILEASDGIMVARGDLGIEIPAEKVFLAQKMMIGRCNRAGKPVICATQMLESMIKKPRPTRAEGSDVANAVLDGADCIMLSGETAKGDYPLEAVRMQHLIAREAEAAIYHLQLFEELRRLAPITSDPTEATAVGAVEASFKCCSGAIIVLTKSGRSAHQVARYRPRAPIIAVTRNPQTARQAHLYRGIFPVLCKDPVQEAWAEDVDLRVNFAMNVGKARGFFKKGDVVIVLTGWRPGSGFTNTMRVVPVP
UniProt P48426: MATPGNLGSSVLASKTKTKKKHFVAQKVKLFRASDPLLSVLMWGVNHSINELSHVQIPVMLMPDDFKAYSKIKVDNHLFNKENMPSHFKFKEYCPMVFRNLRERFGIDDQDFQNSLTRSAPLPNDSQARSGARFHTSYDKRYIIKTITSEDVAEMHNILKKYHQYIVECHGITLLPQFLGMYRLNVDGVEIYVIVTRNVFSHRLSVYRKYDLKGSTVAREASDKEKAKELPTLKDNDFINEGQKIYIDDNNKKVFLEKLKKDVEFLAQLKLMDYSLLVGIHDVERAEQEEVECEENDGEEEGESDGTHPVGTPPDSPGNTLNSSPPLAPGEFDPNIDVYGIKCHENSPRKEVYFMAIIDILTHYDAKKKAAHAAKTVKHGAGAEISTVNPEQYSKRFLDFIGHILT
UniProt Q9UBF8: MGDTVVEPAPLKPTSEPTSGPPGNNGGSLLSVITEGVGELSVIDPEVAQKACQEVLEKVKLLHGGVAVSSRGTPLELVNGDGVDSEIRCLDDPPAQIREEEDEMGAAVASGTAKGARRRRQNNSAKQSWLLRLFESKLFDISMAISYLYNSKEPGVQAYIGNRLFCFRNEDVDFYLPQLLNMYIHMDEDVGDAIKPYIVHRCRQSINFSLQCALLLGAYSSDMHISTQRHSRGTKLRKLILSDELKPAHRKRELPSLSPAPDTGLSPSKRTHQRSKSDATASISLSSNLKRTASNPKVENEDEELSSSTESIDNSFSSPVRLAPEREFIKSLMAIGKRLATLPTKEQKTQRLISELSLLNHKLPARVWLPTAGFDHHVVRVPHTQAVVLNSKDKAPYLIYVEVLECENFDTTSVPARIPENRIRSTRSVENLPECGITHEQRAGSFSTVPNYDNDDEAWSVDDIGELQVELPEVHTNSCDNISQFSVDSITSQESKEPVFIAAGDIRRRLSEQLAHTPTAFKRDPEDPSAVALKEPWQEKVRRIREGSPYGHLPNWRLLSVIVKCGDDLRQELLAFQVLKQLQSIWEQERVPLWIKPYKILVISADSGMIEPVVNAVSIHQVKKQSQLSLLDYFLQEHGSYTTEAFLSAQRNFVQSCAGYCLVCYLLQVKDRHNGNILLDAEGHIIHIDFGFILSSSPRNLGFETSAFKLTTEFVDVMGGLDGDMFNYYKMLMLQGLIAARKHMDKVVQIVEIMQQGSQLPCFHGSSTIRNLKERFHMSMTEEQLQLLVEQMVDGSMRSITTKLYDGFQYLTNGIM
UniProt O00264: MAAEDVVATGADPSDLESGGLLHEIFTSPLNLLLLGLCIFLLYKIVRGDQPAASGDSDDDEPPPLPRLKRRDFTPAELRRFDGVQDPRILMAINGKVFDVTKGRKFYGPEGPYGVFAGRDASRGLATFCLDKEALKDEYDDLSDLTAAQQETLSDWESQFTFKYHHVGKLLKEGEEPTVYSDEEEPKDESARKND
UniProt P19174: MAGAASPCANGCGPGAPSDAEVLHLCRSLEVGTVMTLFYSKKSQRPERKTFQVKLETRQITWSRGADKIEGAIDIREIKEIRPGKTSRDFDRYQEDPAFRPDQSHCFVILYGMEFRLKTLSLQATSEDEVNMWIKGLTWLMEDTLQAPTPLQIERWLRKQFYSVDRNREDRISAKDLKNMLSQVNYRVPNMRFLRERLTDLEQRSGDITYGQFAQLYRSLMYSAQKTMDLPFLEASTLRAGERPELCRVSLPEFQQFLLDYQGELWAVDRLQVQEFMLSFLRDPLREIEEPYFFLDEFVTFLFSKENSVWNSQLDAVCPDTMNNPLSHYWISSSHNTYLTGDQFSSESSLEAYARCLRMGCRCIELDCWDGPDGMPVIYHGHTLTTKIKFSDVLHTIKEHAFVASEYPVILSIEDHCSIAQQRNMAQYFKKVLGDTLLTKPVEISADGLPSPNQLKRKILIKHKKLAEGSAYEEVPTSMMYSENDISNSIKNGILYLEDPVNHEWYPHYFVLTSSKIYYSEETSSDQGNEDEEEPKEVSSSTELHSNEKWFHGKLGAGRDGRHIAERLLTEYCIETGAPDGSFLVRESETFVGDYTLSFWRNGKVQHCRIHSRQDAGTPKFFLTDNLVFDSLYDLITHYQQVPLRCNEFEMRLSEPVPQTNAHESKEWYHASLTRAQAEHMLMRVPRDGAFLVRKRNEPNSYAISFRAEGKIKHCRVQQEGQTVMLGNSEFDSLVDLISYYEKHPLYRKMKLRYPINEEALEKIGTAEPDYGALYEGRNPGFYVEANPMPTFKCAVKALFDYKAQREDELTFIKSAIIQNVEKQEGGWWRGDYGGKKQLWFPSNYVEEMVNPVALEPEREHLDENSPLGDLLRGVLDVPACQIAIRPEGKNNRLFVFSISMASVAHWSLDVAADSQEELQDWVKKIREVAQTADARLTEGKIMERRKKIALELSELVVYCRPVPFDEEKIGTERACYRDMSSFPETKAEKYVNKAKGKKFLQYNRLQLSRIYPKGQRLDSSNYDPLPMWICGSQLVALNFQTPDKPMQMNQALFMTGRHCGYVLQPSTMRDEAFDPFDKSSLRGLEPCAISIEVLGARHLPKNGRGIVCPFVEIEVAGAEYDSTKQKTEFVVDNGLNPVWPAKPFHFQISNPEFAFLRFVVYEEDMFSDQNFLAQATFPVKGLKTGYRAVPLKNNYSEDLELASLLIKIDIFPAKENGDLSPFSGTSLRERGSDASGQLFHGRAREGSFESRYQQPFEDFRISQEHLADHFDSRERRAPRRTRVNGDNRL
UniProt P37287: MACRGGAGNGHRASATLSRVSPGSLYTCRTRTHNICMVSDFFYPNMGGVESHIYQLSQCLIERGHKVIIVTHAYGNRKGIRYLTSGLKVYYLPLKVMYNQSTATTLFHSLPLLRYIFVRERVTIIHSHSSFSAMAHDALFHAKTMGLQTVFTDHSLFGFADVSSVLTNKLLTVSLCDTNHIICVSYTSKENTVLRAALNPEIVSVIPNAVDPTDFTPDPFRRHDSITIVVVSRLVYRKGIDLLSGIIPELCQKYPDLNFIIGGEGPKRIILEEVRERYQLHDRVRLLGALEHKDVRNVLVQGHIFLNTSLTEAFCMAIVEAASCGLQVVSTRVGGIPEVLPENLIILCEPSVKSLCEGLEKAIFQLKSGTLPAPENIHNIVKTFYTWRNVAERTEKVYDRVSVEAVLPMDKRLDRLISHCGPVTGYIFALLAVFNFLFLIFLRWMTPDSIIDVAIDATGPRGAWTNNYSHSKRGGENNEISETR
UniProt P27986, whole entry, looked up: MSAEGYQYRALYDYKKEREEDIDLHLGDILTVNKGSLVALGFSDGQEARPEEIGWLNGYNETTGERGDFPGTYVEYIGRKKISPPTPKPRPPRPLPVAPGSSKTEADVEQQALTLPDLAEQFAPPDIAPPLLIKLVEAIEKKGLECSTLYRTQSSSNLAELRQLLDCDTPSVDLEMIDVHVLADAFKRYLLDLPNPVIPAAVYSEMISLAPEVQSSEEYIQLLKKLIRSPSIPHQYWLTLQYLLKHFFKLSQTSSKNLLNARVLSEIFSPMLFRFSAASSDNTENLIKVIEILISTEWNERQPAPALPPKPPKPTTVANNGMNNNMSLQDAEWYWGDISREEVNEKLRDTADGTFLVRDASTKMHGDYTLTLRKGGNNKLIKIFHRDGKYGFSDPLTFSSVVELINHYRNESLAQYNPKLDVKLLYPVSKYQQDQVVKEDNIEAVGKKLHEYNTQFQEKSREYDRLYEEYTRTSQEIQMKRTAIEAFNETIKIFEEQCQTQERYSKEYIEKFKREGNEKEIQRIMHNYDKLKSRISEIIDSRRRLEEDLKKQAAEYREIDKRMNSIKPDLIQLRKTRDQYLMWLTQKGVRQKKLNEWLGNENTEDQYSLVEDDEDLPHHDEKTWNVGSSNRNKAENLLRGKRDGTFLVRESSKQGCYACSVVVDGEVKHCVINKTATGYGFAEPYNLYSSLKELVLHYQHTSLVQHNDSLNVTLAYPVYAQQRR
UniProt Q13526, whole entry, looked up: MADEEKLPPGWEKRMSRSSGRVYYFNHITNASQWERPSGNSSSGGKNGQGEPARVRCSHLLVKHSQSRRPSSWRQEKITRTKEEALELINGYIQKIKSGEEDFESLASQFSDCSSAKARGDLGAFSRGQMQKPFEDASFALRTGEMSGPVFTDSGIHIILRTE
UniProt Q9UG56: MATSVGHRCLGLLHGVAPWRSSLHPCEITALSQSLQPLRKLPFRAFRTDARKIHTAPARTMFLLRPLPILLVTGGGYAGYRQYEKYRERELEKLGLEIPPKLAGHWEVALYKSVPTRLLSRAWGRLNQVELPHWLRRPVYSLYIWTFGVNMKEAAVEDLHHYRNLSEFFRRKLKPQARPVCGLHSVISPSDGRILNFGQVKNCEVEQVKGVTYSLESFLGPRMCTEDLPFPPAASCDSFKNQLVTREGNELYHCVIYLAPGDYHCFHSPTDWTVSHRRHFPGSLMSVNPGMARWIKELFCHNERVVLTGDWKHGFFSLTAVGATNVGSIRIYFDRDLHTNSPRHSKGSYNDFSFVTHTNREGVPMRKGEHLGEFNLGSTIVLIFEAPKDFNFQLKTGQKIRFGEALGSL

[1] = compound: C/C(=N\NC(=O)C1=CC(=CC=C1)S(=O)(=O)N2CCOCC2)/C3=C(C=CC(=C3)Cl)O
Method in brief: as §1

[2] = compound: C1=CC(=CC=C1C2=NC3=C(N2)C=C(C=C3)C(=O)N)OC4=CC=C(C=C4)Cl
Method in brief: as §1

[3] = compound: C1=CC2=C(C=CC(=C2)/C=C\3/C(=O)NC(=NCC4=CC=CS4)S3)N=C1
Method in brief: as §1

[4] = compound: C1=CC2=NC=CN=C2C=C1/C=C/3\C(=O)NC(=O)S3
Method in brief: as §1

[5] = compound: C1=CC=C(C=C1)C2=NC(=C(N2)C3=CC=NC=C3)C4=CC(=C(C=C4)Cl)O
Method in brief: as §1

[6] = compound: C1=CC=C2C(=C1)C3=NNC4=CC=CC(=C43)C2=O
Method in brief: as §1

[7] = compound: C1CCN(C1)C(=O)NC2=CC=CC(=C2)NC3=NC=C(C(=N3)NCCC4=CN=CN4)Br
Method in brief: as §1

[8] = compound: C1CN(CCC1(CC2=CC=C(C=C2)Cl)N)C3=NC=NC4=C3C=CN4
Method in brief: as §1

IRAK-1-4 Inhibitor I = compound: C1COCCN1CCN2C3=CC=CC=C3N=C2NC(=O)C4=CC(=CC=C4)[N+](=O)[O-] [IRAK-1-4 Inhibitor I]
Method in brief: as §1

ibrutinib = compound: C=CC(=O)N1CCC[C@@H](n2nc(-c3ccc(Oc4ccccc4)cc3)c3c(N)ncnc32)C1 [ibrutinib]
Method in brief: as §1

[9] = compound: CC(=O)c1cnc2ccc(-c3cc(Cl)c(O)c(Cl)c3)nc2c1N[C@H]1CC[C@H](CN(C)C)CC1
Method in brief: as §1

ralimetinib = compound: CC(C)(C)Cn1c(N)nc2ccc(-c3[nH]c(C(C)(C)C)nc3-c3ccc(F)cc3)nc21 [ralimetinib]
Method in brief: as §1

[10] = compound: CC(C)(O)CC(=O)NCCn1ccc2ncnc(Nc3ccc(Oc4cccc(C(F)(F)F)c4)c(Cl)c3)c21
Method in brief: as §1

[11] = compound: CC(C)C1=C2N=C(C=C(N2N=C1)NCC3=CC=CC=C3)NCCCCCCN
Method in brief: as §1

[12] = compound: CC1=C(C2=C(C=C1)C(=O)C3=CC=CC=C3N2CCCN)C
Method in brief: as §1

[13] = compound: CC1=C(C=C(C=C1)NC(=O)C2=CC(=CC=C2)C(C)(C)C#N)NC3=CC4=C(C=C3)N=CN(C4=O)C
Method in brief: as §1

[14] = compound: CC1=C(C=C(C=C1)NC(=O)C2=CC(=CC=C2)N(C)C)NC(=O)C3=CC=C(C=C3)O
Method in brief: as §1

[15] = compound: CC1=CC=C(C=C1)SC2=C3C=C(SC3=CN=C2)C(=O)N
Method in brief: as §1

[16] = compound: CC1=C(C(CC(=O)N1)C2=CC=C(C=C2)C(F)(F)F)C(=O)NC3=C(C=C4C(=C3)C=NN4)F
Method in brief: as §1

Measured: log2 fold change

PHYKPL (UniProt Q8IUZ5)
inactive: erlotinib 0.011 | [1] -0.035 | [2] -0.043 | [3] 0.008 | [4] 0.045 | [5] -0.05 | [6] -0.023 | [7] 0.093 | [8] -0.041 | IRAK-1-4 Inhibitor I -0.003 | ibrutinib 0.075 | [9] -0.035 | ralimetinib 0.024 | [10] 0.113 | [11] 0.054 | [12] 0.042 | [13] -0.006 | [14] 0.025 | [15] -0.011

PLCH1 (UniProt Q4KWH8)
inactive: erlotinib -0.022 | [1] 0.065 | [2] 0.006 | [3] 0.062 | [4] 0.044 | [5] 0.031 | [6] 0.032 | [7] -0.004 | [8] -0.13 | IRAK-1-4 Inhibitor I -0.041 | ibrutinib -0.001 | [9] -0.002 | ralimetinib 0 | [10] 0.011 | [11] -0.056 | [12] 0.071 | [13] -0.011 | [14] 0.064 | [15] 0.027

PGM3 isoform 4 (UniProt O95394)
inactive: erlotinib -0.001 | [1] 0.036 | [2] -0.017 | [3] 0.005 | [4] 0.004 | [5] -0.035 | [6] 0.01 | [7] -0.007 | [8] -0.007 | IRAK-1-4 Inhibitor I 0.007 | ibrutinib 0.004 | [9] 0 | ralimetinib 0.017 | [10] 0.007 | [11] 0.003 | [16] -0.004 | [12] 0.025 | [13] -0.005 | [14] -0.002 | [15] 0.023

PI4K2A (UniProt Q9BTU6)
inactive: erlotinib -0.013 | [1] -0.005 | [2] -0.041 | [3] 0.021 | [4] -0.003 | [5] 0.02 | [6] 0.063 | [7] 0.002 | [8] 0.058 | IRAK-1-4 Inhibitor I 0.003 | ibrutinib -0.017 | [9] 0.044 | ralimetinib 0.002 | [10] -0.037 | [11] -0.006 | [16] -0.028 | [12] 0.028 | [13] -0.06 | [14] 0 | [15] -0.009

PKM (UniProt P14618)
inactive: erlotinib -0.012 | [1] -0.058 | [2] 0.034 | [3] -0.002 | [4] 0.004 | [5] 0.028 | [6] -0.022 | [7] -0.015 | [8] 0 | IRAK-1-4 Inhibitor I -0.003 | [9] 0.008 | ralimetinib -0.01 | [10] -0.013 | [11] 0.012 | [16] -0.027 | [12] 0.048 | [13] 0.014 | [14] -0.002 | [15] 0.014

Quoted from the results shown (two entries):
PGM3 isoform 4 (UniProt O95394)
inactive: erlotinib -0.001 | [1] 0.036 | [2] -0.017 | [3] 0.005 | [4] 0.004 | [5] -0.035 | [6] 0.01 | [7] -0.007 | [8] -0.007 | IRAK-1-4 Inhibitor I 0.007 | ibrutinib 0.004 | [9] 0 | ralimetinib 0.017 | [10] 0.007 | [11] 0.003 | [16] -0.004 | [12] 0.025 | [13] -0.005 | [14] -0.002 | [15] 0.023

PI4K2A (UniProt Q9BTU6)
inactive: erlotinib -0.013 | [1] -0.005 | [2] -0.041 | [3] 0.021 | [4] -0.003 | [5] 0.02 | [6] 0.063 | [7] 0.002 | [8] 0.058 | IRAK-1-4 Inhibitor I 0.003 | ibrutinib -0.017 | [9] 0.044 | ralimetinib 0.002 | [10] -0.037 | [11] -0.006 | [16] -0.028 | [12] 0.028 | [13] -0.06 | [14] 0 | [15] -0.009

The listing continues:

PIP4K2A (UniProt P48426)
inactive: erlotinib -0.04 | [2] 0.032 | [3] 0.001 | [4] 0.225 | [5] 0.135 | [6] 0.105 | [7] 0.103 | [8] -0.006 | IRAK-1-4 Inhibitor I -0.007 | ibrutinib -0.052 | [9] 0.086 | ralimetinib 0.032 | [10] -0.053 | [11] -0.043 | [16] -0.017 | [12] -0.019 | [13] -0.002 | [14] -0.028 | [15] -0.026
active: [1] -0.239

PI4KB (UniProt Q9UBF8)
inactive: erlotinib 0.017 | [1] -0.108 | [2] -0.011 | [3] 0.038 | [4] 0.173 | [5] 0.011 | [6] 0.193 | [7] 0.01 | [8] -0.065 | IRAK-1-4 Inhibitor I -0.003 | ibrutinib -0.044 | [9] 0.208 | ralimetinib 0.021 | [10] -0.021 | [11] -0.004 | [16] -0.015 | [12] -0.018 | [13] 0.022 | [14] 0 | [15] 0.012

PGRMC1 (UniProt O00264)
inactive: erlotinib -0.032 | [1] -0.378 | [2] 0.025 | [3] -0.029 | [4] 0.003 | [5] 0.018 | [6] -0.004 | [7] 0.008 | [8] 0.013 | IRAK-1-4 Inhibitor I -0.005 | ibrutinib 0.057 | [9] 0.013 | ralimetinib 0.008 | [10] -0.01 | [11] -0.035 | [16] 0.004 | [12] 0.022 | [13] -0.066 | [14] -0.007 | [15] -0.005

PLBD1 (UniProt Q6P4A8)
inactive: erlotinib 0.006 | [1] -0.015 | [2] 0.043 | [3] 0.016 | [4] 0.03 | [5] 0.028 | [6] -0.058 | [7] 0.019 | [8] 0.067 | IRAK-1-4 Inhibitor I -0.015 | ibrutinib 0.065 | [9] -0.043 | ralimetinib 0.007 | [10] 0.016 | [11] -0.033 | [16] -0.017 | [12] -0.033 | [13] 0.019 | [14] -0.052 | [15] 0.006

PHLDB1 (UniProt Q86UU1)
inactive: erlotinib 0.01 | [1] -0.044 | [2] 0.032 | [3] -0.081 | [4] -0.031 | [5] 0.101 | [6] -0.158 | [7] -0.032 | [8] 0.068 | IRAK-1-4 Inhibitor I -0.044 | ibrutinib 0.05 | [9] 0.049 | ralimetinib -0.094 | [10] 0.096 | [11] -0.021 | [16] 0.004 | [12] -0.009 | [13] 0.114 | [14] -0.001 | [15] 0.156

PLCG1 isoform 2 (UniProt P19174)
inactive: erlotinib 0.059 | [1] 0.246 | [2] -0.027 | [3] -0.036 | [4] 0.007 | [5] 0.009 | [6] -0.027 | [7] -0.011 | [8] 0.021 | IRAK-1-4 Inhibitor I 0.017 | ibrutinib -0.013 | [9] -0.011 | ralimetinib 0.005 | [10] -0.021 | [11] -0.015 | [16] 0.02 | [12] -0.013 | [13] 0.027 | [14] 0.031 | [15] 0.014

PIGA (UniProt P37287)
inactive: erlotinib 0.001 | [1] 0.102 | [2] -0.124 | [3] 0.021 | [4] -0.003 | [5] 0.055 | [6] -0.052 | [7] -0.041 | [8] 0.023 | IRAK-1-4 Inhibitor I 0.022 | ibrutinib 0.067 | [9] 0.07 | ralimetinib 0.053 | [10] -0.013 | [11] 0.043 | [12] -0.016 | [13] 0.007 | [14] -0.028 | [15] 0.005

PIK3R1 (UniProt P27986)
active: [4] 0.348
inactive: erlotinib -0.027 | [1] -0.4 | [2] 0.008 | [3] 0.069 | [5] 0.076 | [6] 0.089 | [7] -0.015 | [8] 0 | IRAK-1-4 Inhibitor I 0.1 | ibrutinib -0.018 | [9] 0.302 | ralimetinib -0.003 | [10] -0.06 | [11] -0.008 | [16] -0.006 | [12] 0.027 | [13] -0.013 | [14] -0.006 | [15] 0.019

PIN1 (UniProt Q13526)
inactive: erlotinib -0.014 | [1] 0.034 | [2] 0.043 | [3] -0.025 | [4] 0.017 | [5] 0.051 | [6] -0.037 | [7] 0.013 | [8] -0.015 | IRAK-1-4 Inhibitor I 0.019 | ibrutinib -0.013 | [9] 0.004 | ralimetinib 0.013 | [10] -0.033 | [11] 0.014 | [16] -0.009 | [12] 0.025 | [13] 0 | [14] 0.003 | [15] -0.065

PISD (UniProt Q9UG56)
inactive: erlotinib -0.046 | [1] 0.044 | [2] -0.075 | [3] -0.006 | [4] -0.094 | [5] -0.017 | [6] 0.052 | [7] 0.034 | [8] 0.003 | IRAK-1-4 Inhibitor I -0.013 | ibrutinib -0.018 | [9] -0.034 | ralimetinib -0.01 | [10] -0.107 | [11] -0.004 | [16] 0.014 | [12] 0.006 | [13] 0.098 | [14] 0.112 | [15] 0.033

PHKA2 (UniProt P46019)
inactive: erlotinib 0.048 | [1] -0.051 | [2] 0.032 | [3] 0.052 | [4] 0.044 | [5] -0.058 | [6] 0.012 | [7] 0.027 | [8] 0.033 | IRAK-1-4 Inhibitor I 0.03 | ibrutinib -0.032 | [9] 0.095 | ralimetinib -0.022 | [10] -0.097 | [11] -0.016 | [16] -0.03 | [12] -0.076 | [13] 0.007 | [14] 0.013 | [15] -0.015
